Results reported in doi:10.1101/2020.10.21.349357.
Read-outs that look alike come from different tables or passages of the source. These are yes or no findings as the source states them, for the method shown. For some of these results: In cells and extracts the contact can be indirect. Some binding calls cover weakened binding; strength is not graded here. For some of these results: Where a sequence is shown, tags or fusion partners need not be part of it.

Chains of the proteins cited; added tags and fusions are not shown.
UniProt O88522, whole entry: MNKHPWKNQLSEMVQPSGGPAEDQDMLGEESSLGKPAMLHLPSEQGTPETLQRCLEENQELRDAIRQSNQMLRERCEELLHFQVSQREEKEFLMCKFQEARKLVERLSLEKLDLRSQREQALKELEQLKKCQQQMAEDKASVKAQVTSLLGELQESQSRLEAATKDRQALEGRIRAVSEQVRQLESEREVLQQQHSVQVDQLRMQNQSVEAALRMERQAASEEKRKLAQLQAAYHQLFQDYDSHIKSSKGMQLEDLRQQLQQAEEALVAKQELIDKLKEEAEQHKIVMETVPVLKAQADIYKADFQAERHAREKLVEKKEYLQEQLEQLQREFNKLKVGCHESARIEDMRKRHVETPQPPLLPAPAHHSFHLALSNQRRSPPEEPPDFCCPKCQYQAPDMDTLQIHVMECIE
UniProt Q9Y6K9, whole entry: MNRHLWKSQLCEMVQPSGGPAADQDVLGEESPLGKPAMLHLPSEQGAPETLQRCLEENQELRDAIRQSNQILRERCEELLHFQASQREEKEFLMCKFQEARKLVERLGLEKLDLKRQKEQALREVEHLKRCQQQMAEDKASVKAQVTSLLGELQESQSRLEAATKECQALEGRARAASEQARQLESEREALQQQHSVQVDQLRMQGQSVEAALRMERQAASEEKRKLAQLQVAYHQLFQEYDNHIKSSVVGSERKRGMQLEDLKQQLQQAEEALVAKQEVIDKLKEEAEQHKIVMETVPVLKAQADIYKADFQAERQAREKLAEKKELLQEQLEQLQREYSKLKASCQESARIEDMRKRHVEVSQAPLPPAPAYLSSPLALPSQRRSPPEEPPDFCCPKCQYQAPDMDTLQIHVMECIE

Tests used:
Test in all cases: co-IP
[1] = target: endogenous NEMO of mouse peritoneal macrophages (mouse (endogenous in peritoneal macrophages)) (UniProt O88522)
Flag-tagged NEMO [2] = target: Flag-tagged NEMO (UniProt Q9Y6K9)
Flag-tagged NEMO [3] = target: Flag-tagged NEMO (UniProt Q9Y6K9); remark: listed apart in the source

Binder | binding [1] | binding (Flag-tagged NEMO [2]) | binding (Flag-tagged NEMO [3])
endogenous IKKβ of mouse peritoneal macrophages (enzyme, UniProt O88351 1-757) MSWSPSLPTQTCGAWEMKERLGTGGFGNVIRWHNQATGEQIAIKQCRQELSPKNRNRWCLEIQIMRRLNHPNVVAARDVPEGMQNLAPNDLPLLAMEYCQGGDLRRYLNQFENCCGLREGAVLTLLSDIASALRYLHENRIIHRDLKPENIVLQQGEKRLIHKIIDLGYAKELDQGSLCTSFVGTLQYLAPELLEQQKYTVTVDYWSFGTLAFECITGFRPFLPNWQPVQWHSKVRQKSEVDIVVSEDLNGAVKFSSSLPFPNNLNSVLAERLEKWLQLMLMWHPRQRGTDPQYGPNGCFRALDDILNLKLVHVLNMVTGTVHTYPVTEDESLQSLKTRIQENTGILETDQELLQKAGLVLLPDKPATQCISDSKTNEGLTLDMDLVFLLDNSKINYETQITPRPPPESVSCILQEPKRNLSFFQLRKVWGQVWHSIQTLKEDCNRLQQGQRAAMMSLLRNNSCLSKMKNAMASTAQQLKAKLDFFKTSIQIDLEKYKEQTEFGITSDKLLLAWREMEQAVEQCGRENDVKHLVERMMALQTDIVDLQRSPMGRKQGGTLDDLEEQARELYRKLREKPRDQRTEGDSQEMVRLLLQAIQSFEKKVRVIYTQLSKTVVCKQKALELLPKVEEVVSLMNEDERTVVRLQEKRQKELWNLLKIACSKVRGPVSGSPDSMNVSRLSHPGQLMSQPSSACDSLPESDKKSEELVAEAHALCSRLESALQDTVKEQDRSFTTLDWSWLQMEDEERCSLEQACD | binds | – | –
HA-tagged N4BP1 (full length) (protein, UniProt O75113 1-896) MAARAVLDEFTAPAEKAELLEQSRGRIEGLFGVSLAVLGALGAEEPLPARIWLQLCGAQEAVHSAKEYIKGICEPELEERECYPKDMHCIFVGAESLFLKSLIQDTCADLCILDIGLLGIRGSAEAVVMARSHIQQFVKLFENKENLPSSQKESEVKREFKQFVEAHADNYTMDLLILPTSLKKELLTLTQGEENLFETGDDEVIEMRDSQQTEFTQNAATGLNISRDETVLQEEARNKAGTPVSELTKQMDTVLSSSPDVLFDPINGLTPDEEALSNERICQKRRFSDSEERHTKKQFSLENVQEGEILHDAKTLAGNVIADLSDSSADSENLSPDIKETTEEMEYNILVNFFKTMGYSQEIVEKVIKVYGPSTEPLLLLEEIEKENKRFQEDREFSAGTVYPETNKTKNKGVYSSTNELTTDSTPKKTQAHTQQNMVEKFSQLPFKVEAKPCTSNCRINTFRTVPIEQKHEVWGSNQNYICNTDPETDGLSPSVASPSPKEVNFVSRGASSHQPRVPLFPENGLHQQPEPLLPNNMKSACEKRLGCCSSPHSKPNCSTLSPPMPLPQLLPSVTDARSAGPSDHIDSSVTGVQRFRDTLKIPYKLELKNEPGRTDLKHIVIDGSNVAITHGLKKFFSCRGIAIAVEYFWKLGNRNITVFVPQWRTRRDPNVTEQHFLTQLQELGILSLTPARMVFGERIASHDDRFLLHLADKTGGIIVTNDNFREFVNESVSWREIITKRLLQYTFVGDIFMVPDDPLGRSGPRLEEFLQKEVCLRDMQPLLSALPNVGMFDPSFRVPGTQAASTSHQPPTRIQGAPSSHWLPQQPHFPLLPALPSLQQNLPMPAQRSSAETNELREALLKIFPDSEQRLKIDQILVAHPYMKDLNALSAMVLD | – | binds | binds
endogenous N4BP1 of mouse peritoneal macrophages (protein, UniProt Q6A037 1-893) MAARVVLDEFTAPAEKAALLERSRGRIEALFGVGLAVLGALGAEEPLPARIWLQLRGAQEAVHSAKEYIKGICEPELEEKECYPKAMHCIFVGAQSLFLKSLIQDTCADLCVLDTGLLGIRGSAEAVVMARSHIQQFVKLFESNENLPSNQRESEIKREFRQFVEAHADSYTMDLLILPTSLKKELLSLTQGEESLFETDDDVITVGDVRPPEYTQSAATGPSSARDEVVVQEDSRNKARTPVSELTKHMDTVFSSSPDVLFVPVNGLSPDEDALSKDRVCHKRRSSDTEERHTKKQFSLENVPEGELLPDGKGSAGNEVIDLSDPASNSTNLSPDGKDTTEEMEYNILVNFFKTMGYSQEIVEKVIREYGPSTEPLLLLEEIEKENKRLQEDRDFPPCTVYPDASQSRNAGVGSTTNELTADSTPKKAQSHTEQSMVERFSQLPFKDSKHCTSNCKVNSFRTVPVGQKQEIWGSKQNSSCTVDLETDGHSASAASASPKDISFVSRGASGHQQRNPAFPENGFQQQTEPLLPNNTKPACEKRSGSCSSPQPKPNYPPLSPPLPLPQLLPSVTEARLGGSSDHIDSSVTGVQRFRDTLKIPYKLELKNEPGRADLKHIVIDGSNVAITHGLKKFFSCRGIAIAVEYFWKLGNRNITVFVPQWRTRRDPNITEQHFLTQLQELGILSLTPARMVFGERIASHDDRFLLHLADKTGGIIVTNDNFREFVTESVSWREIITKRLLQYTFVGDIFMVPDDPLGRNGPRLEEFLRKEAFLRHMQPLLNALPSVGTFDPGFRSPSTQVANNSHQPPPRIQTSSSPWLPQQSHFTALATLPSMQQNPPLPAQRSSAETSELREALLKIFPDSEQKLKIDQILAAHPYMKDLNALSALVLD | binds | – | –
